Article PMC6753678, “Fueling Open Innovation for Malaria Transmission-Blocking Drugs: Hundreds of Molecules Targeting Early Parasite Mosquito Stages” (Frontiers in Microbiology, 2019)

Test system: P. berghei ookinete development
[1] = unified cytotox / IC50, <10-fold red, >10-fold green

SMILES: COCCN(C)c1ccc(C(=O)Nc2ccccc2)cc1NS(=O)(=O)Cc1ccccc1.O=C(O)C(F)(F)F [TCMDC-134575]
- Assay tox ratio Pb ODA: 71.41

SMILES: COc1ccc2ncc(C)c(CCN3CCC(NCc4ccc5c(n4)NC(=O)CS5)CC3)c2c1.Cl [TCMDC-134648]
- Assay tox ratio Pb ODA [1]: 13.59

SMILES: COc1ccc2ncc(Cl)c(NCC3(O)CCC(NCc4ccc5c(n4)NC(=O)CS5)CC3)c2n1.Cl (stereo not shown) [TCMDC-134671]
- Assay tox ratio Pb ODA [1]: 15.49

SMILES: COc1ccc2nccc([C@@H](O)CN3C4CCC3CC(NCc3ccc5c(n3)NC(=O)CS5)C4)c2n1.Cl (stereo partly shown) [TCMDC-134697]
- Assay tox ratio Pb ODA [1]: 9.73

SMILES: COc1cc(OC)cc(-c2nn(-c3ccc([N+](=O)[O-])cc3C#N)c(=S)n2Cc2ccco2)c1 [TCMDC-134715]
- Assay tox ratio Pb ODA: 62.39

SMILES: COCCn1c(-c2cccc(Cl)c2)nn(-c2ccc([N+](=O)[O-])cc2C#N)c1=S [TCMDC-134719]
- Assay tox ratio Pb ODA [1]: 54.21

SMILES: N#Cc1cc([N+](=O)[O-])ccc1-n1nc(C(N)=O)n(Cc2cccc(F)c2)c1=S [TCMDC-134721]
- Assay tox ratio Pb ODA: 30.88

SMILES: Cc1[nH]c(C)c(-c2ccc(-c3ccc(OC(F)(F)F)cc3)cc2)c(=O)c1Br [TCMDC-134726]
- Assay tox ratio Pb ODA (red: <10-fold selectivity; green: >10-fold): 301.46

SMILES: Cc1[nH]c(C)c(-c2ccc(Oc3ccc(F)cc3)cc2)c(=O)c1Cl [TCMDC-134728]
- Assay tox ratio Pb ODA [1]: 1151.75

SMILES: C/C=C/COc1ccc(-c2c(C)[nH]c(C)c(Cl)c2=O)cc1 [TCMDC-134729]
- Assay tox ratio Pb ODA [1]: 213.23

SMILES: Cc1cccc(Nc2nc(N[C@@H]3CCCNC3)nc3cc[nH]c(=O)c23)c1.O=C(O)C(F)(F)F [TCMDC-134835]
- Assay tox ratio Pb ODA [1]: 4.40

SMILES: COc1ccc2nccc([C@@H](O)CN3CCC(NC(=O)c4cc5c(F)cc(F)cc5[nH]4)CC3)c2n1 [TCMDC-134945]
- Assay tox ratio Pb ODA (red: <10-fold selectivity; green: >10-fold): 25.22

SMILES: Cc1cccc(Nc2nc(NCCCCN)nc3cc[nH]c(=O)c23)c1.O=C(O)C(F)(F)F [TCMDC-134946]
- Assay tox ratio Pb ODA: 9.44

SMILES: CC1CN(Cc2cccc(C#N)c2)CCN1c1ccc(NC(=O)c2cccs2)cc1.O=C(O)C(F)(F)F (stereo not shown) [TCMDC-134969]
- Assay tox ratio Pb ODA (red: <10-fold selectivity; green: >10-fold): 1.84

SMILES: CCC(C)CN1CCN(c2ccc(NC(=O)c3cccs3)cc2)C(C)C1.O=C(O)C(F)(F)F (stereo not shown) [TCMDC-134996]
- Assay tox ratio Pb ODA (red: <10-fold selectivity; green: >10-fold): 57.41

SMILES: CC1CN(Cc2ccccc2)CCN1c1ccc(NC(=O)c2cccs2)cc1.O=C(O)C(F)(F)F (stereo not shown) [TCMDC-135005]
- Assay tox ratio Pb ODA (red: <10-fold selectivity; green: >10-fold): 78.57

SMILES: CC1CN(Cc2cccc(F)c2)CCN1c1ccc(NC(=O)c2cccs2)cc1.O=C(O)C(F)(F)F (stereo not shown) [TCMDC-135009]
- Assay tox ratio Pb ODA (red: <10-fold selectivity; green: >10-fold): 285.98

SMILES: O=C(Nc1ccc(N2CCCN(Cc3cccc(F)c3)CC2)cc1)c1cccs1.O=C(O)C(F)(F)F [TCMDC-135012]
- Assay tox ratio Pb ODA (red: <10-fold selectivity; green: >10-fold): 41.41

SMILES: CN(Cc1cccc(F)c1)C1CCN(c2cc(NC(=O)c3ccc(F)cc3)ccn2)CC1.O=C(O)C(F)(F)F [TCMDC-135018]
- Assay tox ratio Pb ODA: 0.0228

SMILES: O=C(O)C(F)(F)F.O=c1[nH]ccc2nc(N[C@@H]3CCCNC3)nc(Nc3ccc(S(=O)(=O)N4CCOCC4)cc3)c12 [TCMDC-135038]
- Assay tox ratio Pb ODA: 29.58

SMILES: C=CCOc1ccc(-c2c(C)[nH]c(C)c(Br)c2=O)cc1 [TCMDC-135042]
- Assay tox ratio Pb ODA (red: <10-fold selectivity; green: >10-fold): 10.12

SMILES: COCCn1c(-c2cccc(Cl)c2)nn(-c2ccc([N+](=O)[O-])cc2Cl)c1=S [TCMDC-135130]
- Assay tox ratio Pb ODA: 62.50

SMILES: COc1ccc2ncc(C#N)c(CCN3C4CCC3CC(NCc3ccc5c(n3)NC(=O)CS5)C4)c2c1.Cl (stereo not shown) [TCMDC-135180]
- Assay tox ratio Pb ODA [1]: 2.10

SMILES: C#C[C@H]1O[C@@H](n2cnc3c(Nc4cc(Br)cc(C(F)(F)F)c4)ncnc32)[C@H](O)[C@@H]1O [TCMDC-135185]
- Assay tox ratio Pb ODA: 108.01

SMILES: COc1ccc2ncc(C#N)c(CCN3CCC(NCc4ccc5c(n4)NC(=O)CS5)CC3)c2n1.Cl [TCMDC-135188]
- Assay tox ratio Pb ODA [1]: 71.52

SMILES: Cc1occc1C(=O)Nc1nc(-c2ccccn2)nc2ccsc12 [TCMDC-135244]
- Assay tox ratio Pb ODA: 0.65

SMILES: COc1c(C)[nH]c(C)c(-c2ccc(Oc3cccc(C(F)(F)F)c3)cc2)c1=O [TCMDC-135253]
- Assay tox ratio Pb ODA (red: <10-fold selectivity; green: >10-fold): 0.36

SMILES: Cc1[nH]c(C)c(-c2ccc(OCc3ccc(OC(F)(F)F)cc3)nc2)c(=O)c1Br [TCMDC-135254]
- Assay tox ratio Pb ODA [1]: 51.72

SMILES: Cc1[nH]c(C)c(-c2ccc(OCc3ccc(OC(F)(F)F)cc3)nc2)c(=O)c1Cl [TCMDC-135271]
- Assay tox ratio Pb ODA [1]: 93.65

SMILES: CCNC(=O)Nc1ccc(-c2cnc(N)c(-c3nc4ccc(OC)cc4[nH]3)c2)cc1 [TCMDC-135321]
- Assay tox ratio Pb ODA: 2.87

SMILES: COc1ccc2nc(-c3cc(-c4ccc(NC(=O)C(C)C)cc4)cnc3N)[nH]c2c1 [TCMDC-135322]
- Assay tox ratio Pb ODA: 20.38

SMILES: COc1ccc2nc(-c3cc(-c4ccc(NC(C)=O)cc4)cnc3N)[nH]c2c1 [TCMDC-135365]
- Assay tox ratio Pb ODA: 27.20

SMILES: COc1cc(F)c2ncc(C#N)c(CCN3CCC(NCc4ccc5c(c4)OCCO5)CC3)c2c1.Cl [TCMDC-135367]
- Assay tox ratio Pb ODA: 17.90

SMILES: Cc1cc(SC(C)(C)C)cc2c(Cl)c(C(N)=O)cnc12 [TCMDC-135415]
- Assay tox ratio Pb ODA: 0.50

SMILES: Cc1[nH]c2ccc(-c3ccccc3)cc2c(=O)c1Br [TCMDC-135426]
- Assay tox ratio Pb ODA: 79.75

SMILES: C=Cc1ccc(-c2c(C)[nH]c(C)c(Br)c2=O)cc1 [TCMDC-135433]
- Assay tox ratio Pb ODA (red: <10-fold selectivity; green: >10-fold): 46.48

SMILES: Cc1[nH]c(C)c(-c2ccc(CCc3ccc(F)cc3F)cc2)c(=O)c1Cl [TCMDC-135462]
- Assay tox ratio Pb ODA [1]: 9523.81

SMILES: CCCCc1ccc(-c2ccc3[nH]c(C)c(Br)c(=O)c3c2)cc1 [TCMDC-135463]
- Assay tox ratio Pb ODA: 3.34

SMILES: COc1ccc2ncc(F)c(CCN3CCC(NCc4ccc5c(c4)CCO5)CC3)c2n1.Cl [TCMDC-135491]
- Assay tox ratio Pb ODA (red: <10-fold selectivity; green: >10-fold): 9.33

SMILES: O=C(NCC1CC1)C1CCN(C(c2ccc(Cl)cc2)c2ccc(Cl)cc2)CC1 [TCMDC-135522]
- Assay tox ratio Pb ODA: 62.90

SMILES: Cc1[nH]c(C)c(-c2ccc(Nc3ccc(C(F)(F)F)cn3)cc2)c(=O)c1Br [TCMDC-135546]
- Assay tox ratio Pb ODA (red: <10-fold selectivity; green: >10-fold): 179.31

SMILES: COc1cc(F)c2ncc(Cl)c(CCN3CCC(NCc4ccc5c(c4)NC(=O)CS5)CC3)c2c1.Cl [TCMDC-135620]
- Assay tox ratio Pb ODA: 22.68

SMILES: COc1cc(F)c2ncc(Cl)c(CCN3CCC(NCc4ccc5c(n4)NC(=O)CO5)CC3)c2c1.Cl [TCMDC-135621]
- Assay tox ratio Pb ODA (red: <10-fold selectivity; green: >10-fold): 21.43

SMILES: COc1cc(F)c2ncc(Cl)c(CCN3CCC(NCc4ccc5c(c4)NC(=O)CO5)CC3)c2c1.Cl [TCMDC-135623]
- Assay tox ratio Pb ODA (red: <10-fold selectivity; green: >10-fold): 22.73

SMILES: COc1ccc2ncc(F)c(CCN3C4CCC3CC(NCc3ccc5c(c3)OCCO5)C4)c2n1.Cl (stereo not shown) [TCMDC-135638]
- Assay tox ratio Pb ODA (red: <10-fold selectivity; green: >10-fold): 9.39

SMILES: COc1ccc2ncc(C#N)c(CCN3CCC(NCc4ccc5c(c4)NC(=O)CO5)CC3)c2c1.Cl [TCMDC-135645]
- Assay tox ratio Pb ODA (red: <10-fold selectivity; green: >10-fold): 85.12

SMILES: COc1ccc(CCc2ccc(-c3c(C)[nH]c(C)c(Cl)c3=O)cc2)cc1 [TCMDC-135654]
- Assay tox ratio Pb ODA [1]: 697.59

SMILES: COc1ccc(C#Cc2ccc(-c3c(C)[nH]c(C)c(Cl)c3=O)cc2)cc1 [TCMDC-135655]
- Assay tox ratio Pb ODA [1]: 86.26

SMILES: Cc1[nH]c(C)c(-c2ccc(OCc3cccc(C(F)(F)F)c3)nc2)c(=O)c1Br [TCMDC-135656]
- Assay tox ratio Pb ODA [1]: 80.90

SMILES: Cc1[nH]c(C)c(-c2ccc(OCc3ccc(F)cc3)nc2)c(=O)c1Br [TCMDC-135657]
- Assay tox ratio Pb ODA [1]: 167.43

SMILES: Cc1[nH]c(C)c(-c2ccc(OCc3cc(F)cc(F)c3)nc2)c(=O)c1Cl [TCMDC-135676]
- Assay tox ratio Pb ODA [1]: 3.79

SMILES: Cc1[nH]c(C)c(-c2ccc(-c3ccc(OC(F)(F)F)cc3)nc2)c(=O)c1Cl [TCMDC-135677]
- Assay tox ratio Pb ODA [1]: 89.34

SMILES: Cc1[nH]c(C)c(-c2ccc(CCc3ccc(N)cc3)cc2)c(=O)c1Cl [TCMDC-135678]
- Assay tox ratio Pb ODA [1]: 91.51

SMILES: Cc1[nH]c(C)c(-c2ccc(OCc3cc(F)cc(F)c3)nc2)c(=O)c1Br [TCMDC-135683]
- Assay tox ratio Pb ODA [1]: 62.13

SMILES: COc1nc2c(CCN3CCC(NCc4ccc5c(n4)NC(=O)CO5)CC3)c(Cl)cnc2cc1F.Cl [TCMDC-135766]
- Assay tox ratio Pb ODA (red: <10-fold selectivity; green: >10-fold): 11.46

SMILES: COc1nc2c(CCN3CCC(NCc4ccc5c(c4)NCCO5)CC3)c(Cl)cnc2cc1F.Cl [TCMDC-135768]
- Assay tox ratio Pb ODA (red: <10-fold selectivity; green: >10-fold): 4.09

SMILES: Cc1[nH]c(C)c(-c2ccc(/C=C/c3ccccn3)cc2)c(=O)c1Cl [TCMDC-135787]
- Assay tox ratio Pb ODA [1]: 95.28

SMILES: COc1ccc(CCc2ccc(-c3c(C)[nH]c(C)c(Cl)c3=O)cc2)cc1OC [TCMDC-135789]
- Assay tox ratio Pb ODA [1]: 360.43

SMILES: Cc1[nH]c(C)c(-c2ccc(OCCCc3ccccn3)cc2)c(=O)c1Br.Cl [TCMDC-135795]
- Assay tox ratio Pb ODA (red: <10-fold selectivity; green: >10-fold): 0.29

SMILES: Cc1[nH]c(C)c(-c2ccc(OCc3ccccc3C(F)(F)F)nc2)c(=O)c1Br [TCMDC-135796]
- Assay tox ratio Pb ODA [1]: 71.73

SMILES: COc1nc2c(CCN3CC[C@H](NCc4ccc5c(c4)NC(=O)CO5)[C@H](O)C3)c(Cl)cnc2cc1F.Cl [TCMDC-135805]
- Assay tox ratio Pb ODA (red: <10-fold selectivity; green: >10-fold): 15.62

SMILES: Cc1[nH]c(C)c(-c2ccc(OCc3cc(C(F)(F)F)cc(C(F)(F)F)c3)nc2)c(=O)c1Cl [TCMDC-135814]
- Assay tox ratio Pb ODA [1]: 10.31

SMILES: Cc1[nH]c(C)c(-c2ccc(OCc3cc(C(F)(F)F)cc(C(F)(F)F)c3)nc2)c(=O)c1Br [TCMDC-135815]
- Assay tox ratio Pb ODA [1]: 5.80

SMILES: CCCCCCCc1ccc(-c2c(C)[nH]c(C)c(Cl)c2=O)cn1 [TCMDC-135816]
- Assay tox ratio Pb ODA [1]: 53.19

SMILES: Cc1[nH]c(C)c(-c2ccc(-c3ccccc3C(F)(F)F)nc2)c(=O)c1Br [TCMDC-135881]
- Assay tox ratio Pb ODA [1]: 102.81

SMILES: COc1ccc2ncc(F)c(CCN3CCC(NC(=O)c4ccc5c(n4)NC(=O)CS5)C(O)C3)c2n1 (stereo not shown) [TCMDC-135907]
- Assay tox ratio Pb ODA [1]: 110.69

SMILES: Cc1[nH]c(C)c(-c2ccc(-c3cccc(C(F)(F)F)c3)nc2)c(=O)c1Br [TCMDC-135911]
- Assay tox ratio Pb ODA [1]: 249.89

SMILES: Cc1[nH]c(C)c(-c2ccc(-c3ccc(F)cc3)nc2)c(=O)c1Br [TCMDC-135925]
- Assay tox ratio Pb ODA [1]: 61.09

SMILES: Cc1[nH]c(C)c(-c2ccc(-c3ccccc3F)nc2)c(=O)c1Br [TCMDC-135926]
- Assay tox ratio Pb ODA [1]: 216.88

SMILES: Cc1[nH]c(C)c(-c2ccc(-c3ccccc3F)nc2)c(=O)c1Cl [TCMDC-135927]
- Assay tox ratio Pb ODA [1]: 231.48

Read-outs that look alike come from different tables or passages of the source.
